Laboratory results reported in PMC3841096.
Results are given in words; binding and its absence hold for the method and conditions named. Binding seen in cells or lysates may run through a third protein.

By UniProt entry, the sequences of proteins in these tests, tags left out.
UniProt Q9Z2V6: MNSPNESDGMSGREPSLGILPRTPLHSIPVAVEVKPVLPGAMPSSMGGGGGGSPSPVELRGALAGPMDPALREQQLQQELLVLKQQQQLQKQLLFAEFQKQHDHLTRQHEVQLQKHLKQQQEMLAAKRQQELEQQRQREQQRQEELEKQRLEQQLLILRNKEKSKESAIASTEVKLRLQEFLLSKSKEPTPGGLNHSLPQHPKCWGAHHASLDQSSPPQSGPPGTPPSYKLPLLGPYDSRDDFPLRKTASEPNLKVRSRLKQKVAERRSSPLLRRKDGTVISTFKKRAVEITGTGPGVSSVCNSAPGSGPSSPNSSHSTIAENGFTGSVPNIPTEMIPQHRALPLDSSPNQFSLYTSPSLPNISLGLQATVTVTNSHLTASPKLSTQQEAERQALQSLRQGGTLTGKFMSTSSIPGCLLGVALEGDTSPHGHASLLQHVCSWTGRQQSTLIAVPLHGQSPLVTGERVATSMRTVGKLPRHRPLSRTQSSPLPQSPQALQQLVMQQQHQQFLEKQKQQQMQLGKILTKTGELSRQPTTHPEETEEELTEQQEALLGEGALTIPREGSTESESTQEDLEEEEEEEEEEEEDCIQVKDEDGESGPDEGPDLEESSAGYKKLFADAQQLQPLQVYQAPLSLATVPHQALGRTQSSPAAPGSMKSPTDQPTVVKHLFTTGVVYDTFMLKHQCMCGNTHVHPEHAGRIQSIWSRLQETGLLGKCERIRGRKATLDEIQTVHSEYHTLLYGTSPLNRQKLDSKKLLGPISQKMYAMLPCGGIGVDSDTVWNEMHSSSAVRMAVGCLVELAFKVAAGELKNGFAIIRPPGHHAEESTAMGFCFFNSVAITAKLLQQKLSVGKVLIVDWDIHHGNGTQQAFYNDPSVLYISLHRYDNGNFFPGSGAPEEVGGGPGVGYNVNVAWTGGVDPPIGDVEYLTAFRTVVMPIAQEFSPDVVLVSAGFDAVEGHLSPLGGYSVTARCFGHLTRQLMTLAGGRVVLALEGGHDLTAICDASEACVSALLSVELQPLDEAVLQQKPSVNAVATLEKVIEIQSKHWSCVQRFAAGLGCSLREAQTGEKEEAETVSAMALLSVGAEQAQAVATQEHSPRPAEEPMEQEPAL
UniProt Q6NZM9: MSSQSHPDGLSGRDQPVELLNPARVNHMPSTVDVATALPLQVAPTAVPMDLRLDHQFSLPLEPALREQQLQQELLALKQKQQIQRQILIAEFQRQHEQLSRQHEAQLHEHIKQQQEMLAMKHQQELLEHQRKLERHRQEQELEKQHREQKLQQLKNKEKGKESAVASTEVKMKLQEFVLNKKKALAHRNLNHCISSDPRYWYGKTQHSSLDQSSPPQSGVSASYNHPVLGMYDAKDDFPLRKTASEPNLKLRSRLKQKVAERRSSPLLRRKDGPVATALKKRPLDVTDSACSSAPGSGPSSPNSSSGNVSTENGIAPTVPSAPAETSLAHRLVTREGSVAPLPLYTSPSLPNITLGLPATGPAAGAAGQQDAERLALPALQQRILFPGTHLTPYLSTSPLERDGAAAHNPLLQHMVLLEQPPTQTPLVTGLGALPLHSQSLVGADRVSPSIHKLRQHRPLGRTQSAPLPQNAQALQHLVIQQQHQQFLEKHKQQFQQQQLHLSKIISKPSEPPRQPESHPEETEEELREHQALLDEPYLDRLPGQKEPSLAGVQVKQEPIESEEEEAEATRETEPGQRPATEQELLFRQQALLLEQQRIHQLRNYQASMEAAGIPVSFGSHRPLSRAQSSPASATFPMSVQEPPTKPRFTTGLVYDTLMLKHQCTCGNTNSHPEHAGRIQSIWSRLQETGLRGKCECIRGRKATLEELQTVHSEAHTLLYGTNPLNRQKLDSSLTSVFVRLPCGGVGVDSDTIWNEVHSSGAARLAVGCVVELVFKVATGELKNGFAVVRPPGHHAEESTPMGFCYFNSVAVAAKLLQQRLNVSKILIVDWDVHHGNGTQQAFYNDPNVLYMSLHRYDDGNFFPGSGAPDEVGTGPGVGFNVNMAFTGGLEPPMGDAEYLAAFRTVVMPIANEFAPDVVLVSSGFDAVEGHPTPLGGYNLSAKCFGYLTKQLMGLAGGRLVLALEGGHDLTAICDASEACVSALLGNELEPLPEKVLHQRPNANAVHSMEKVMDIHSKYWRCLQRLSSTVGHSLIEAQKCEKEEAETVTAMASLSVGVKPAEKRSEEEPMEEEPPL
UniProt P42859: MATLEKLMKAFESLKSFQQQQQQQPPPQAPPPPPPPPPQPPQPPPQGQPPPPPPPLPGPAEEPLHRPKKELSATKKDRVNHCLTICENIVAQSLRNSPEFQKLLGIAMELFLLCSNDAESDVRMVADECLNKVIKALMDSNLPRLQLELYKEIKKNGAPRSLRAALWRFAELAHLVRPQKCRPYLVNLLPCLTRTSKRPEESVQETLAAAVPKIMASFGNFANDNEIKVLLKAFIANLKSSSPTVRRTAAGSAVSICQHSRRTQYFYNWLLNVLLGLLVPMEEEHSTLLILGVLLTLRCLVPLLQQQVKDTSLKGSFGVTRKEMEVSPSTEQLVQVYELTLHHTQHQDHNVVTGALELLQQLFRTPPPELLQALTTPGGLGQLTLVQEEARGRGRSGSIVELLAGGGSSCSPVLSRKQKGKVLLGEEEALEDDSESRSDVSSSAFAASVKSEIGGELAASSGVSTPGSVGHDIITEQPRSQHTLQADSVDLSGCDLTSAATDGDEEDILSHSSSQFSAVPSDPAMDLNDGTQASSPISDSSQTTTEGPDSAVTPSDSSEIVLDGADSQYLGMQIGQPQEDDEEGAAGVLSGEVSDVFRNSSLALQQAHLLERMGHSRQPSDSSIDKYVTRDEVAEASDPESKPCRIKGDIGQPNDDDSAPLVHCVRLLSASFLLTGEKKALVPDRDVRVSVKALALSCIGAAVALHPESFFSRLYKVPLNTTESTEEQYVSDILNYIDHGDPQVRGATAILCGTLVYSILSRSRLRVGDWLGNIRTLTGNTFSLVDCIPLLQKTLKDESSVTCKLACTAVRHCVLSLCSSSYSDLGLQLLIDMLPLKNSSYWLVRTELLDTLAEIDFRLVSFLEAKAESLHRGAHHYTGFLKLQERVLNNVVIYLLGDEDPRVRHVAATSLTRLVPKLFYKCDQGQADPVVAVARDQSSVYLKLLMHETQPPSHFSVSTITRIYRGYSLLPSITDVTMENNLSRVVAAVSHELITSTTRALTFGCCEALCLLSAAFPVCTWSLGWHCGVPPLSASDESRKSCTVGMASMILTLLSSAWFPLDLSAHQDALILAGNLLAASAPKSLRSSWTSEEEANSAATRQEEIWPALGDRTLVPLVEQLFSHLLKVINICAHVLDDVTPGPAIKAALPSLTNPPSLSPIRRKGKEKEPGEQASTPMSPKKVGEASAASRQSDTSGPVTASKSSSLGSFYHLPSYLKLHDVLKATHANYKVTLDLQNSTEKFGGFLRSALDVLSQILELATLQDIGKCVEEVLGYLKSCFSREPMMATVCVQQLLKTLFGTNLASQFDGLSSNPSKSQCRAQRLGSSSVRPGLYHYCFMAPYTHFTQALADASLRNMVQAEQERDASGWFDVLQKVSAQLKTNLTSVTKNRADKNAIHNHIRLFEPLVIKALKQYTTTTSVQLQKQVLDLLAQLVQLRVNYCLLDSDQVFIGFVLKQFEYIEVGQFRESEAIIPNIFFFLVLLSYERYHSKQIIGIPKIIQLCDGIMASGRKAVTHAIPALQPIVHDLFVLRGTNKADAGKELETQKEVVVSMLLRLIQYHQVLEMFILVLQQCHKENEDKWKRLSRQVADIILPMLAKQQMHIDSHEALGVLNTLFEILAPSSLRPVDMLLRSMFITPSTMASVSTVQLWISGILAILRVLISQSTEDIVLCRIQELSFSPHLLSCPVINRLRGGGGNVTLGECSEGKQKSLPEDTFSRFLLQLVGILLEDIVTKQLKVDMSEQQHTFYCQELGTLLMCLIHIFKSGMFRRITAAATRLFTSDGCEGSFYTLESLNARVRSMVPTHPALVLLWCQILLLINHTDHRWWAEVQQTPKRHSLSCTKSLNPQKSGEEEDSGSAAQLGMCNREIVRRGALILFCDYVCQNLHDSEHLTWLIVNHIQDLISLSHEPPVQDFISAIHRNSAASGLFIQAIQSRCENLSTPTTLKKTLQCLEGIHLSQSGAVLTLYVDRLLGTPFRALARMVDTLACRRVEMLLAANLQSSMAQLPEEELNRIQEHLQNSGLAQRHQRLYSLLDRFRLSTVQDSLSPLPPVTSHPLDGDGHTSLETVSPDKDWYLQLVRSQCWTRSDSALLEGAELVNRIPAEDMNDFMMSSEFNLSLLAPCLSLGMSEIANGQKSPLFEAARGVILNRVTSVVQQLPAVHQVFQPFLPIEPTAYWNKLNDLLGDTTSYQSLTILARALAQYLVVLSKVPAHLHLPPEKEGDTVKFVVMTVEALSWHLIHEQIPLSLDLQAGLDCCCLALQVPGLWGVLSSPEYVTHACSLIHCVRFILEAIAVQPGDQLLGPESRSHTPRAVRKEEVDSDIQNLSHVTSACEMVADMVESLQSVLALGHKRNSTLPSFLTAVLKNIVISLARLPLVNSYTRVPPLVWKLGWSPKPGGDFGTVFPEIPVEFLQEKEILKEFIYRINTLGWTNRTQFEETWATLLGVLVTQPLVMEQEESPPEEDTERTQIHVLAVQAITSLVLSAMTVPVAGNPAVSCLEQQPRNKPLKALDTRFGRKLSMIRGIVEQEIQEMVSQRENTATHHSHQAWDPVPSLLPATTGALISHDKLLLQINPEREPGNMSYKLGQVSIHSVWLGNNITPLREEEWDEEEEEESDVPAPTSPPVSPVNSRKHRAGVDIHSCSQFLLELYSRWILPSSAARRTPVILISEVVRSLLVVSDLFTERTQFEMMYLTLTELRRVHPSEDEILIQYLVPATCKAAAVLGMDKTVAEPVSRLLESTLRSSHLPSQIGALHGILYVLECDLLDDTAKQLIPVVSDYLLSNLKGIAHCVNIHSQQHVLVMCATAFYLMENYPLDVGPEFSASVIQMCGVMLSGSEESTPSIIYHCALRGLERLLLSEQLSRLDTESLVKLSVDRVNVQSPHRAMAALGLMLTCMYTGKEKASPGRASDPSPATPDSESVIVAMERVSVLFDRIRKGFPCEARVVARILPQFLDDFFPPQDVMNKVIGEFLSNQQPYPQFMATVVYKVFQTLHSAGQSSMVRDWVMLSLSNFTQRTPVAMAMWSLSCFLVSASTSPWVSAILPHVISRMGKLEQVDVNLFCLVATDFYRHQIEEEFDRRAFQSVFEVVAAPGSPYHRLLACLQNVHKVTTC

Tests used:
[1] = target: HDAC5 (endogenous, mouse brain) (mouse (endogenous in mouse brain)) (UniProt Q9Z2V6); experiment: co-IP; whole brain lysates of 8-wk-old mice in HEPES buffer, protein-G Dynabeads overnight at 4°C; immunoprecipitation with HDAC4 (DM-15 or H-92) or HDAC5 (ab56929) antibodies, HTT detected with MAB2166 or MW1
[2] = target: HDAC4 (endogenous, mouse brain) (mouse (endogenous in mouse brain)) (UniProt Q6NZM9); experiment: as above

wild-type HTT (7Q), endogenous mouse huntingtin (from UniProt P42859 1-3119)
binding [1]: no binding | binding [2]: no binding
